Results as given in paper PMC3713262.
These are yes or no findings as the source states them, for the method shown. In cells and extracts the contact can be indirect. Some binding calls cover weakened binding; strength is not graded here.

Sequences of proteins named here, by UniProt entry; tags and fusion partners are left off. A change or cut given only in a name is not applied to a line headed by its entry.
UniProt P40692: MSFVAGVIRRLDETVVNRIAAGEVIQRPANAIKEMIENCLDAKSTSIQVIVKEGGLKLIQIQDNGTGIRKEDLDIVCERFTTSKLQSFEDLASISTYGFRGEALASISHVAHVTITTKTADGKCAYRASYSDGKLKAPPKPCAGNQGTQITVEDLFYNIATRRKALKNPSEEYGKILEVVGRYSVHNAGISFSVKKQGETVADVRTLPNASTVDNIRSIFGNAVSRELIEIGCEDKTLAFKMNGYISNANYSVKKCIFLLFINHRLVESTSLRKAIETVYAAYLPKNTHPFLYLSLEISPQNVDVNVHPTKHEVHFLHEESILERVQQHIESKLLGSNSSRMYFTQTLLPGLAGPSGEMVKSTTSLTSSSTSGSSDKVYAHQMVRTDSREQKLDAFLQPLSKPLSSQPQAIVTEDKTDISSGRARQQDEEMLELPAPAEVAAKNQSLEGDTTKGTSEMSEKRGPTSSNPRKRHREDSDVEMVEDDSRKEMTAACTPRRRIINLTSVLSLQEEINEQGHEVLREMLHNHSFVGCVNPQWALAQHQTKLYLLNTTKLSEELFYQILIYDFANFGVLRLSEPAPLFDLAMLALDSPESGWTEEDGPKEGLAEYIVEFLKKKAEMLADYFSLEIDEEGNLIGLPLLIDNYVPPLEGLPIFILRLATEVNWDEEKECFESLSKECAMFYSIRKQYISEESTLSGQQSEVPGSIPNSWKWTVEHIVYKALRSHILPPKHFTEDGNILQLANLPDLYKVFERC

Columns and labels:
[1] = biological target: T1, FANCJ protein (human (endogenous in MKN45)) (UniProt Q9BX63); assay: co-IP; MKN45 cells treated with 10 μM 5FU for 24 h; lysate in CelLytic M, anti-FANCJ antibody 2 h at 4 °C, Protein A magnetic beads; western blot for MLH1 and PMS2
T1 sequence: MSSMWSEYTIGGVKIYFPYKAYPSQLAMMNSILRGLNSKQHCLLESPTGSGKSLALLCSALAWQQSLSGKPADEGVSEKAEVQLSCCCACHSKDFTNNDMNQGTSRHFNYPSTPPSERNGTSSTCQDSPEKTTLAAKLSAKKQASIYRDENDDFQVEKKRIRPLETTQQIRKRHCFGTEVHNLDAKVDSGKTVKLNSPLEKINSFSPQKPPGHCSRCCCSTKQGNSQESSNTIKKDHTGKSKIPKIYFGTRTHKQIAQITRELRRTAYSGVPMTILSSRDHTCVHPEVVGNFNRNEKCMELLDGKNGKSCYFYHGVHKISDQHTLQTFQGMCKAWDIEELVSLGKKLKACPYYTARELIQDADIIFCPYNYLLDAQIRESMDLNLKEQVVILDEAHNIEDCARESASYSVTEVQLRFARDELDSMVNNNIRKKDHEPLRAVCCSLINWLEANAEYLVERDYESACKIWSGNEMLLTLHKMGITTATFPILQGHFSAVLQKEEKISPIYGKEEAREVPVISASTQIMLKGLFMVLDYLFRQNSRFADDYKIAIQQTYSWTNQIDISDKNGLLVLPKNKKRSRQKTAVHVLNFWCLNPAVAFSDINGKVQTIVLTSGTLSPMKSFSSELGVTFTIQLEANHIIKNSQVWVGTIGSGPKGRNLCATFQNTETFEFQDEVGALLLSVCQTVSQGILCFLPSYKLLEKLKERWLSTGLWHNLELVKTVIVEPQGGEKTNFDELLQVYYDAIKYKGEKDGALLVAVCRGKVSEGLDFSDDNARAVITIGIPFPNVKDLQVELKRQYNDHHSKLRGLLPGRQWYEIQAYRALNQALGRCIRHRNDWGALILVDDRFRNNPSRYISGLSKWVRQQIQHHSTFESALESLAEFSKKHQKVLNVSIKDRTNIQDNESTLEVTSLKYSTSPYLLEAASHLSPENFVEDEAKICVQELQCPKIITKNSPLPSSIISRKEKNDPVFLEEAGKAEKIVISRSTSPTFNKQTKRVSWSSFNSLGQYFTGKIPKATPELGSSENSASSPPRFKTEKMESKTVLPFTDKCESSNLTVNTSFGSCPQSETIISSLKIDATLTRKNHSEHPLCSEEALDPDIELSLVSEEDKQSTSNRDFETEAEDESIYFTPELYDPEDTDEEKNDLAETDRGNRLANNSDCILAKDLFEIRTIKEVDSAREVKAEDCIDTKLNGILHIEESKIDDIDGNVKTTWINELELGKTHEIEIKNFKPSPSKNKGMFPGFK

[2] = biological target: T1, FANCJ protein (human (endogenous in MKN45)); assay: co-IP; MKN45 cells treated with 1 μM oxaliplatin for 24 h (10 μM 5FU plus 1 μM oxaliplatin also run); lysate in CelLytic M, anti-FANCJ antibody 2 h at 4 °C, Protein A magnetic beads; western blot for MLH1 and PMS2

binding [1]: binds weakly | binding [2]: binds
Substance: mismatch repair protein complex MLH1-PMS2 (MutLα) (from UniProt P40692 1-756; P54278 1-862)
